These are yes or no findings as the source states them, for the method shown. In cells and extracts the contact can be indirect. Tags and fused reporters may be left off the sequences shown.
Target: GST tagged TAK1 truncated fragment lacking the kinase domain (human (from the RefSeq entry))
Experiment: pull-down; GST-tagged and Flag- or HA-tagged proteins co-expressed in COS-7 cells; lysates (20 mM Tris pH 7.4, 150 mM NaCl, 0.5% Triton X-100) incubated with glutathione sepharose beads at 4 °C; washed three times with 250 mM NaCl, 0.5% Triton X-100; Western blot

binding: no binding
B1: Flag-POPX2 (enzyme, UniProt P49593 1-454)
chain: MSSGAPQKSSPMASGAEETPGFLDTLLQDFPALLNPEDPLPWKAPGTVLSQEEVEGELAELAMGFLGSRKAPPPLAAALAHEAVSQLLQTDLSEFRKLPREEEEEEEDDDEEEKAPVTLLDAQSLAQSFFNRLWEVAGQWQKQVPLAARASQRQWLVSIHAIRNTRRKMEDRHVSLPSFNQLFGLSDPVNRAYFAVFDGHGGVDAARYAAVHVHTNAARQPELPTDPEGALREAFRRTDQMFLRKAKRERLQSGTTGVCALIAGATLHVAWLGDSQVILVQQGQVVKLMEPHRPERQDEKARIEALGGFVSHMDCWRVNGTLAVSRAIGDVFQKPYVSGEADAASRALTGSEDYLLLACDGFFDVVPHQEVVGLVQSHLTRQQGSGLRVAEELVAAARERGSHDNITVMVVFLRDPQELLEGGNQGEGDPQAEGRRQDLPSSLPEPETQAPPRS

Reference: publication PMC5636987
